Assay results from US20260001933A1.
Changes are numbered by the printed parent chain. These are yes or no findings as the source states them, for the method shown. Some entries that bind do so weakly or less than the wild type. Tags and fused reporters may be left off the sequences shown.

Experiments:
[1] = target: Protein A (Sensor Chip Protein A, Cytiva) (UniProt P38507); assay: SPR, Biacore 8K, Sensor Chip Protein A, single cycle kinetics
[2] = target: Protein A (Sensor Chip Protein A, Cytiva) (UniProt P38507); assay: SPR, Biacore 8K, Sensor Chip Protein A (figure legend)
[3] = target: Protein A (Sensor Chip Protein A, Cytiva) (UniProt P38507); assay: SPR sensorgram (Biacore 8K), Sensor Chip Protein A

Measured: binding

B1: PetML119 (canine p75NTR ECD-canine IgGB wt Fc protein fusion) (Fc fusion)
chain: KEACPTGLYTHSGECCKACNLGEGVAQPCGANQTVCEPCLDSVTFSDVVSATEPCKPCTECVGLQSMSAPCVEADDAVCRCAYGYYQDETTGRCEACRVCEAGSGLVFSCQDRQNTVCEECPDGTYSDEANHVDPCLPCTVCEDTERQLRECTRWADAECEEIPGGGGRENGRVPRPPDCPKCPAPEMLGGPSVFIFPPKPKDTLLIARTPEVTCVVVDLDPEDPEVQISWFVDGKQMQTAKTQPREEQFNGTYRVVSVLPIGHQDWLKGKQFTCKVNNKALPSPIERTISKARGQAHQPSVYVLPPSREELSKNTVSLTCLIKDFFPPDIDVEWQSNGQQEPESKYRTTPPQLDEDGSYFLYSKLSVDKSRWQRGDTFICAVMHEALHNHYTQKSLSHSPGK
binds: [1] | [2] | [3]

B2: PetML122 (canine p75NTR ECD-canine Fc YTE protein fusion) (Fc fusion)
chain: B1 chain with L206Y, A208T, T210E
binds: [1] | [2] | [3]
